Source: paper PMC7192513

Protein sequences, listed by entry. Tags and fused reporters are not part of them.
UniProt Q8IJD4: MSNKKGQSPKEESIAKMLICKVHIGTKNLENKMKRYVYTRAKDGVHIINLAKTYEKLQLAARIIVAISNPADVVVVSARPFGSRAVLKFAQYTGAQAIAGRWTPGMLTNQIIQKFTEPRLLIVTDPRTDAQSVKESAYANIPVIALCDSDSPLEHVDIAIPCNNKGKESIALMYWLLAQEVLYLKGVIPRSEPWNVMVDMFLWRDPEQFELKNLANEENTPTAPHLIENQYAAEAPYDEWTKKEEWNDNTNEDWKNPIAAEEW
UniProt Q8ILW9: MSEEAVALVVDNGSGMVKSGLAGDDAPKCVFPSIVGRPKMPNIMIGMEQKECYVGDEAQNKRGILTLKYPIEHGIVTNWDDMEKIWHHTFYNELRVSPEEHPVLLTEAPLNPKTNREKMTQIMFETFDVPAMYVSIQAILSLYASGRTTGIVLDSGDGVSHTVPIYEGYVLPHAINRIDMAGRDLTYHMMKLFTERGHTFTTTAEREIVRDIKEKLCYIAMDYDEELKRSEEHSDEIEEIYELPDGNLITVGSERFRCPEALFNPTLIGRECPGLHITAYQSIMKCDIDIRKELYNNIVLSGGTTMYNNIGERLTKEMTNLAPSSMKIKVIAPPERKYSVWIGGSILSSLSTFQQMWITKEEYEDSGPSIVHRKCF
UniProt P50250: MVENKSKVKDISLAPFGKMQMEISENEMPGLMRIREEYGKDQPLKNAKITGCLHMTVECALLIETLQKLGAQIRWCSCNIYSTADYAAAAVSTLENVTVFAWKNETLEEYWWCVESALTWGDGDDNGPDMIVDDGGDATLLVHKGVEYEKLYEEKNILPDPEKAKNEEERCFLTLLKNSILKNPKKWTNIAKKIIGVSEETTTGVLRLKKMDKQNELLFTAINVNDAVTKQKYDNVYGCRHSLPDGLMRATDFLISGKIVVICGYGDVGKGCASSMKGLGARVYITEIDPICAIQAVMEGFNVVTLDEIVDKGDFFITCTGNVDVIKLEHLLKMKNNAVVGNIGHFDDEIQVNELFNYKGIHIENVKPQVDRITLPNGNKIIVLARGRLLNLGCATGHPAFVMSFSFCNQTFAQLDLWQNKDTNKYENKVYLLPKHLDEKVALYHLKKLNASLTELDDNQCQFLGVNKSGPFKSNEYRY
UniProt Q8I3V5: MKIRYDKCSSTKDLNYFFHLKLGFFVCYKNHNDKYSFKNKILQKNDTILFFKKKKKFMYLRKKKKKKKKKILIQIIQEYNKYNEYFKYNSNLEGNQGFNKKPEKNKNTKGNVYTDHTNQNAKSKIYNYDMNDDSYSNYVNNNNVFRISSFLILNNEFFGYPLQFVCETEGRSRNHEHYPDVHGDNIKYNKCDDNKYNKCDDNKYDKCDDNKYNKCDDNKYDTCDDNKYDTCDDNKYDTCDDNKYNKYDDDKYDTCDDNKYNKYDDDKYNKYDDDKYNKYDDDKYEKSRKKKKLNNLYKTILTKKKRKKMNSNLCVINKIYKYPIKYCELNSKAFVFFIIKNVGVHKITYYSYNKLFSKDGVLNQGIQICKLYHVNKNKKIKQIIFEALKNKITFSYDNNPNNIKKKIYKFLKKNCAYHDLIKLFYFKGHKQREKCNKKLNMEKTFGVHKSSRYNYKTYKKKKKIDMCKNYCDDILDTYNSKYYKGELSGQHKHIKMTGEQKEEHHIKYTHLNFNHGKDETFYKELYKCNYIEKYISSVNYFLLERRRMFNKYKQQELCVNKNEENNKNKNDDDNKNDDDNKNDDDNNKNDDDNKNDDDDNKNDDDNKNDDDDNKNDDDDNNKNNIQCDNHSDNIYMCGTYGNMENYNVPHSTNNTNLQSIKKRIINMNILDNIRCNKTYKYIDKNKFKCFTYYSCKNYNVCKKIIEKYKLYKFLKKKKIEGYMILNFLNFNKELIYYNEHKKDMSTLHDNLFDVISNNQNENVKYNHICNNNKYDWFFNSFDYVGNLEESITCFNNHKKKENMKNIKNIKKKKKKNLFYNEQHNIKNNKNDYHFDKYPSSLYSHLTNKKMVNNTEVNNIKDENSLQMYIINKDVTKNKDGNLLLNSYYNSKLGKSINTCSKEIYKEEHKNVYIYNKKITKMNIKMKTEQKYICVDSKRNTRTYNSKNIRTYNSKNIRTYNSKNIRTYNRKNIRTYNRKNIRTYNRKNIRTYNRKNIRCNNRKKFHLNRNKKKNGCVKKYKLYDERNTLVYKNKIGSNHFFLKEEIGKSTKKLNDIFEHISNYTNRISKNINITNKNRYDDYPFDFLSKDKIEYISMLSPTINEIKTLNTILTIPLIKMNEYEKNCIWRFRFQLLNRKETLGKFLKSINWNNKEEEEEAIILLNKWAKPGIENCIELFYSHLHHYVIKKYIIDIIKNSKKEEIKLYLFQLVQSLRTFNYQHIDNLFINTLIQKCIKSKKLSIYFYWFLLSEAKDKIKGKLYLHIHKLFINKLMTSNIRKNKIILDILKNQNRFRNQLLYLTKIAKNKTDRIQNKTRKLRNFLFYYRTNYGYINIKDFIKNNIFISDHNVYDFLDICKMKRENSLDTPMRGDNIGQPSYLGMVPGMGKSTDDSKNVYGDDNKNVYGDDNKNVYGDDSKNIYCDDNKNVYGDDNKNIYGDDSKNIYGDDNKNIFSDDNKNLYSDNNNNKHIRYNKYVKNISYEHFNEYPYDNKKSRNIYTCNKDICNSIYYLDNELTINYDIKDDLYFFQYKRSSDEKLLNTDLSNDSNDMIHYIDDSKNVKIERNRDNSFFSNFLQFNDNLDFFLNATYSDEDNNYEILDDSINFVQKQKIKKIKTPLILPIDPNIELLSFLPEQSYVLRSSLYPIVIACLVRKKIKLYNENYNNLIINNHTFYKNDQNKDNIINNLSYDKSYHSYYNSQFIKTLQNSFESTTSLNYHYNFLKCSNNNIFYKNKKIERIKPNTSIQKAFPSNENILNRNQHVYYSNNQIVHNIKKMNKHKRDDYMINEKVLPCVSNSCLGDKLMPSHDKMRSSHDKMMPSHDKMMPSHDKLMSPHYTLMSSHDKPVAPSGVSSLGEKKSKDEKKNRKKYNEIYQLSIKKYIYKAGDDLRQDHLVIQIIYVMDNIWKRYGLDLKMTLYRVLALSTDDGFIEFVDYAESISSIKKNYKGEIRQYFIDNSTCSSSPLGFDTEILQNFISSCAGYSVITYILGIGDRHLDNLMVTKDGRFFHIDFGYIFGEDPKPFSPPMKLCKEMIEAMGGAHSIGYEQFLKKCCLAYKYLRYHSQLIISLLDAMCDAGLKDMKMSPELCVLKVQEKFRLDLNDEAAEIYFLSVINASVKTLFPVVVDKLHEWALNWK
UniProt Q8IBZ9: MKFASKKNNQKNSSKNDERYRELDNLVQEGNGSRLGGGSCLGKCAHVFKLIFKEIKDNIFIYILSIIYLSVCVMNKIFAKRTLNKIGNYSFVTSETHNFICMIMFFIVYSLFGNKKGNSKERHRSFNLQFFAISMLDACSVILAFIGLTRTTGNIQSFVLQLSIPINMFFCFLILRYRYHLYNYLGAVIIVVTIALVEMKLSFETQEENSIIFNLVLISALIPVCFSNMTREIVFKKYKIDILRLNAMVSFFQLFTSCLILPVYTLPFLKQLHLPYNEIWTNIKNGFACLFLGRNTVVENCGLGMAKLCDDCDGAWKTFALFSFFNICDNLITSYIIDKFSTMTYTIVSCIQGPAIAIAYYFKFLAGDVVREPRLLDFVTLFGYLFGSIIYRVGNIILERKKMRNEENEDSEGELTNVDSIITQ
UniProt C6KT50: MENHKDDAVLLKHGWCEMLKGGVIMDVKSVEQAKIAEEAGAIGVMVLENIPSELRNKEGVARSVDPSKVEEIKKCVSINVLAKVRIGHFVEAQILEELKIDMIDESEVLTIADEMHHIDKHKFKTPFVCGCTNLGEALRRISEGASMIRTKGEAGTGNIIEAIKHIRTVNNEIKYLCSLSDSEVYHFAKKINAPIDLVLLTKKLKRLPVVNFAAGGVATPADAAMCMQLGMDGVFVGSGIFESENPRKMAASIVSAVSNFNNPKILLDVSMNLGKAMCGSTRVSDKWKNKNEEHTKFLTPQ
UniProt Q9BHN1: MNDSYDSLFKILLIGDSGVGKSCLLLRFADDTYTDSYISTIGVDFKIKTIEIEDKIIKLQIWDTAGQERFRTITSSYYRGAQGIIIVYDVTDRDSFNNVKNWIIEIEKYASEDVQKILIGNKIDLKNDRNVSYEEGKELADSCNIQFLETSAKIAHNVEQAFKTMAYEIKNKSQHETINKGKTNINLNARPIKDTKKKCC
UniProt Q7KQL5: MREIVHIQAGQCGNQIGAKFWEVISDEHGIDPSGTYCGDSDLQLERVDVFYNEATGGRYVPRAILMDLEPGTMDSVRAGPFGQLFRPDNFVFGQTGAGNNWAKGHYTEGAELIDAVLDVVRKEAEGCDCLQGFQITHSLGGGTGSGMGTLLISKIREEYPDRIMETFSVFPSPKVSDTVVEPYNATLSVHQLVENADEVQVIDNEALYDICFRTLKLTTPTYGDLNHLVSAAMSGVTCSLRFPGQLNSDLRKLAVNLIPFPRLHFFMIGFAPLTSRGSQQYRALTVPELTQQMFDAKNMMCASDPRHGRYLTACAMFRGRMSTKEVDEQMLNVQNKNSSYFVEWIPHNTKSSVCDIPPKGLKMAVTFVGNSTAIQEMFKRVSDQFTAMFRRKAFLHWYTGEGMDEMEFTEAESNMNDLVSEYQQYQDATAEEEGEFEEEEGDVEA
UniProt Q8IKW5: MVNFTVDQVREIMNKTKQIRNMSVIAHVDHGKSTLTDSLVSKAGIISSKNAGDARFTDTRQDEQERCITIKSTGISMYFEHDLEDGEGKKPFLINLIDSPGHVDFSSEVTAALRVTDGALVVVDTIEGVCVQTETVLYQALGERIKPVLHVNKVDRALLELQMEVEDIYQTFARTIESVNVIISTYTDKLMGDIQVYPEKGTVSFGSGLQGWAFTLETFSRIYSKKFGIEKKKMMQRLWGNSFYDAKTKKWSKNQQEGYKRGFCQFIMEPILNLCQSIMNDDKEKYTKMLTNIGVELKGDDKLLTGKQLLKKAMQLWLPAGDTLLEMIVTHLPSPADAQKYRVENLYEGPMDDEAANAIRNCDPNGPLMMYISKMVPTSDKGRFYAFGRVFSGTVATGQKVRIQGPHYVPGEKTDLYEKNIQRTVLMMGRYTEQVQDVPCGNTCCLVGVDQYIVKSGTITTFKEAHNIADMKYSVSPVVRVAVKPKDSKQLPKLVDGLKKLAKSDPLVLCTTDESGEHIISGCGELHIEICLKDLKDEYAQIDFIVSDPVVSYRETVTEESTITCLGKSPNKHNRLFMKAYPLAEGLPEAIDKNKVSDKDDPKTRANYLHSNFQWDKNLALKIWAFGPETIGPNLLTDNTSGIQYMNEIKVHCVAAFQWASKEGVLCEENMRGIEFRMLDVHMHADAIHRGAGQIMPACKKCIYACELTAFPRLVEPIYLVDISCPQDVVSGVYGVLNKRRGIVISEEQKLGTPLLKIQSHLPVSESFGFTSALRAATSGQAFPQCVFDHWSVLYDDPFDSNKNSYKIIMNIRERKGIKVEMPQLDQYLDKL

Each substance was assayed against T1, Kelch protein K13 (P. falciparum (endogenous in Cam3.II and CamWT parasites)) (UniProt Q8IDQ2) (assay: affinity purification with mass spectrometry; co-IP with a mix of the K13 mAbs E3 and D9 (2.5 ug each) coupled to Pierce Direct IP columns; 500 ug parasite lysate in Pierce IP Lysis Buffer; cultures enriched in 0-12 hpi rings of Cam3.II (K13 WT, C580Y, R539T) and CamWT (WT, C580Y); eluates by LC-MS/MS; 6 experiments, 13 test samples, 10 negative controls).
T1 sequence: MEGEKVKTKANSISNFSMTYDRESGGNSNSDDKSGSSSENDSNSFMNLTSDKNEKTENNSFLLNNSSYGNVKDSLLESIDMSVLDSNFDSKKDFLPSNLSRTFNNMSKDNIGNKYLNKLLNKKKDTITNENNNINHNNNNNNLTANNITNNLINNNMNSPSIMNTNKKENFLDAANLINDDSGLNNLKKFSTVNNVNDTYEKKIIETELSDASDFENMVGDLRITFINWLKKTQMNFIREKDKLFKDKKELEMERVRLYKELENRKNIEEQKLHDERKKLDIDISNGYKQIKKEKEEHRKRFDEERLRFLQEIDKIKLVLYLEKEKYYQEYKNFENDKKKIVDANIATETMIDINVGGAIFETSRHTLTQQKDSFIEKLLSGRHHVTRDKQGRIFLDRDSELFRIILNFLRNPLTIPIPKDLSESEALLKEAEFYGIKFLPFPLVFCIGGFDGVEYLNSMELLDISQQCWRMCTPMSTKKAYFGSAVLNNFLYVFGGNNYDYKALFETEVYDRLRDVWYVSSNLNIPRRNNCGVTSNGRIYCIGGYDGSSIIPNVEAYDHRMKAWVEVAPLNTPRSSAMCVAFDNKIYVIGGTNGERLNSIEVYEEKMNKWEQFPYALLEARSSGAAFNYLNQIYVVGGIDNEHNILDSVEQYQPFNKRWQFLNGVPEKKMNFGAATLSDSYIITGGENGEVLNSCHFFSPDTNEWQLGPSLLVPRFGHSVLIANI

Substance | binding
2-oxoglutarate dehydrogenase E1 component (from UniProt Q8I6S5) | binds
26S proteasome AAA-ATPase subunit RPT2, putative (from UniProt Q8IJW0) | binds
26S proteasome AAA-ATPase subunit RPT4, putative (from UniProt Q8IEQ1) | binds
26S proteasome regulatory subunit RPN1, putative (from UniProt O96153) | binds
26S proteasome regulatory subunit RPN7, putative (from UniProt Q8II71) | binds
40S ribosomal protein S2 (from UniProt Q8IJD4 1-263) | binds
40S ribosomal protein S3 (from UniProt Q8IKH8) | binds
40S ribosomal protein S8e, putative (from UniProt Q8IM10) | binds
40S ribosomal protein S9, putative (from UniProt Q8I3R0) | binds
40S ribosomal protein S10, putative (from UniProt Q8IBQ5) | binds
40S ribosomal protein S15A, putative (from UniProt O77395) | binds
40S ribosomal protein S16, putative (from UniProt Q8IAX5) | binds
60S ribosomal protein L4 (from UniProt Q8I431) | binds
60S ribosomal protein L6-2, putative (from UniProt A0A5K1K8V8) | binds
AP-2μ | no binding
ATP synthase F1 alpha subunit | binds
ATP-dependent 6-phosphofructokinase (from UniProt Q8I2Z8) | binds
ATP-dependent RNA helicase DBP1, putative (from UniProt Q8IAU1) | binds
ATP-dependent protease subunit ClpQ | binds
ATP-dependent zinc metalloprotease FTSH 1 | binds
Actin II (from UniProt Q8ILW9 1-376) | binds
Adenosylhomocysteinase (from UniProt P50250 1-479) | binds
CPN20 (from UniProt Q50JA7) | binds
Casein kinase 2, alpha subunit | binds

Substance | binding
Chaperone protein ClpB | binds
Cysteine desulfurase, putative (from UniProt Q8IBI5) | binds
Cytochrome bc1 complex subunit Rieske, putative (from UniProt Q8IL75) | binds
Dicarboxylate/tricarboxylate carrier (from UniProt Q8IB73) | binds
Dolichyl-phosphate-mannose-protein mannosyltransferase, putative | binds
Dynamin-like protein (from UniProt Q8IHR4) | binds
EIF1α | binds
Elongation factor Tu, putative (from UniProt Q8IE20) | binds
Eukaryotic initiation factor 4A | binds
Eukaryotic translation initiation factor 2 subunit gamma, putative (from UniProt Q8ILY9) | binds
Ferrodoxin NADP+ reductase (from UniProt Q8IBP8) | binds
Fumarate hydratase, putative (from UniProt Q8I2N6) | binds
Glycerol-3-phosphate 1-O-acyltransferase (from UniProt Q8I5S7) | binds
Inosine-5'-monophosphate dehydrogenase (from UniProt Q8I2U5) | binds
Karyopherin beta (from UniProt Q8I3M5) | binds
Malate:quinone oxidoreductase, putative (from UniProt C6KT09) | binds
Multidrug resistance-associated protein 1 (from UniProt Q9U0N4) | binds
PI3K (from UniProt Q8I3V5 1-2133) | no binding
PfCRT (from UniProt Q8IBZ9 1-424) | binds
Phosphoglucomutase 2, putative (from UniProt Q8I1V2) | binds
Prohibitin, putative (from UniProt Q8IBC3) | binds
Protein transport protein Sec23 (from UniProt Q8IB60) | binds
Protein transport protein Sec24A (from UniProt C0H5J6) | binds
Pyridoxine biosynthesis protein PDX1 (from UniProt C6KT50 1-301) | binds

Substance | binding
RAP domain-containing protein (from UniProt Q8I289) | binds
RNA-binding protein, putative (from UniProt C0H570) | binds
Rab1A | binds
Rab1B (from UniProt Q9BHN1 1-200) | binds
Rab7 | binds
Rab18B | binds
Ras-related protein Rab5C (from UniProt Q8I274) | binds
Ribose-phosphate pyrophosphokinase, putative (from UniProt Q8IE40) | binds
S-adenosylmethionine synthetase | binds
Sec61 | binds
Succinyl-CoA ligase, putative (from UniProt Q8IL89) | binds
Superoxide dismutase [Fe] (from UniProt C6KT71) | binds
Tubulin beta chain (from UniProt Q7KQL5 1-445) | binds
Tudor staphylococcal nuclease (from UniProt Q8II01) | binds
V-type proton ATPase subunit E, putative (from UniProt Q8I2H3) | binds
elongation factor 2 (from UniProt Q8IKW5 1-832) | binds
glutathione peroxidase-like thioredoxin peroxidase | binds
isocitrate dehydrogenase | binds
lipoamide acyltransferase | binds
mitochondrial matrix protein 33 | binds
mitochondrial-processing peptidase alpha subunit | binds
plasmepsin II (from UniProt Q8I6V3) | binds
succinyl-CoA synthetase alpha subunit | binds

Results are given in words; binding and its absence hold for the method and conditions named. In cells and extracts the contact can be indirect. Here binding means that the protein was enriched with, or labelled near, the bait; the list need not be complete. No binding means not detected with the bait.
